Assay results: the supplement of paper PMC12819154, “High-throughput peptide-centric local stability assay extends protein–ligand identification to membrane proteins, tissues and bacteria” (Nature Structural & Molecular Biology, 2025)
Some of the results follow. Most values lie at the level of the controls, where differences are scatter.

Sequences of proteins named here, by UniProt entry; tags and fusion partners are left off. A change or cut given only in a name is not applied to a line headed by its entry.
UniProt E9Q2M9: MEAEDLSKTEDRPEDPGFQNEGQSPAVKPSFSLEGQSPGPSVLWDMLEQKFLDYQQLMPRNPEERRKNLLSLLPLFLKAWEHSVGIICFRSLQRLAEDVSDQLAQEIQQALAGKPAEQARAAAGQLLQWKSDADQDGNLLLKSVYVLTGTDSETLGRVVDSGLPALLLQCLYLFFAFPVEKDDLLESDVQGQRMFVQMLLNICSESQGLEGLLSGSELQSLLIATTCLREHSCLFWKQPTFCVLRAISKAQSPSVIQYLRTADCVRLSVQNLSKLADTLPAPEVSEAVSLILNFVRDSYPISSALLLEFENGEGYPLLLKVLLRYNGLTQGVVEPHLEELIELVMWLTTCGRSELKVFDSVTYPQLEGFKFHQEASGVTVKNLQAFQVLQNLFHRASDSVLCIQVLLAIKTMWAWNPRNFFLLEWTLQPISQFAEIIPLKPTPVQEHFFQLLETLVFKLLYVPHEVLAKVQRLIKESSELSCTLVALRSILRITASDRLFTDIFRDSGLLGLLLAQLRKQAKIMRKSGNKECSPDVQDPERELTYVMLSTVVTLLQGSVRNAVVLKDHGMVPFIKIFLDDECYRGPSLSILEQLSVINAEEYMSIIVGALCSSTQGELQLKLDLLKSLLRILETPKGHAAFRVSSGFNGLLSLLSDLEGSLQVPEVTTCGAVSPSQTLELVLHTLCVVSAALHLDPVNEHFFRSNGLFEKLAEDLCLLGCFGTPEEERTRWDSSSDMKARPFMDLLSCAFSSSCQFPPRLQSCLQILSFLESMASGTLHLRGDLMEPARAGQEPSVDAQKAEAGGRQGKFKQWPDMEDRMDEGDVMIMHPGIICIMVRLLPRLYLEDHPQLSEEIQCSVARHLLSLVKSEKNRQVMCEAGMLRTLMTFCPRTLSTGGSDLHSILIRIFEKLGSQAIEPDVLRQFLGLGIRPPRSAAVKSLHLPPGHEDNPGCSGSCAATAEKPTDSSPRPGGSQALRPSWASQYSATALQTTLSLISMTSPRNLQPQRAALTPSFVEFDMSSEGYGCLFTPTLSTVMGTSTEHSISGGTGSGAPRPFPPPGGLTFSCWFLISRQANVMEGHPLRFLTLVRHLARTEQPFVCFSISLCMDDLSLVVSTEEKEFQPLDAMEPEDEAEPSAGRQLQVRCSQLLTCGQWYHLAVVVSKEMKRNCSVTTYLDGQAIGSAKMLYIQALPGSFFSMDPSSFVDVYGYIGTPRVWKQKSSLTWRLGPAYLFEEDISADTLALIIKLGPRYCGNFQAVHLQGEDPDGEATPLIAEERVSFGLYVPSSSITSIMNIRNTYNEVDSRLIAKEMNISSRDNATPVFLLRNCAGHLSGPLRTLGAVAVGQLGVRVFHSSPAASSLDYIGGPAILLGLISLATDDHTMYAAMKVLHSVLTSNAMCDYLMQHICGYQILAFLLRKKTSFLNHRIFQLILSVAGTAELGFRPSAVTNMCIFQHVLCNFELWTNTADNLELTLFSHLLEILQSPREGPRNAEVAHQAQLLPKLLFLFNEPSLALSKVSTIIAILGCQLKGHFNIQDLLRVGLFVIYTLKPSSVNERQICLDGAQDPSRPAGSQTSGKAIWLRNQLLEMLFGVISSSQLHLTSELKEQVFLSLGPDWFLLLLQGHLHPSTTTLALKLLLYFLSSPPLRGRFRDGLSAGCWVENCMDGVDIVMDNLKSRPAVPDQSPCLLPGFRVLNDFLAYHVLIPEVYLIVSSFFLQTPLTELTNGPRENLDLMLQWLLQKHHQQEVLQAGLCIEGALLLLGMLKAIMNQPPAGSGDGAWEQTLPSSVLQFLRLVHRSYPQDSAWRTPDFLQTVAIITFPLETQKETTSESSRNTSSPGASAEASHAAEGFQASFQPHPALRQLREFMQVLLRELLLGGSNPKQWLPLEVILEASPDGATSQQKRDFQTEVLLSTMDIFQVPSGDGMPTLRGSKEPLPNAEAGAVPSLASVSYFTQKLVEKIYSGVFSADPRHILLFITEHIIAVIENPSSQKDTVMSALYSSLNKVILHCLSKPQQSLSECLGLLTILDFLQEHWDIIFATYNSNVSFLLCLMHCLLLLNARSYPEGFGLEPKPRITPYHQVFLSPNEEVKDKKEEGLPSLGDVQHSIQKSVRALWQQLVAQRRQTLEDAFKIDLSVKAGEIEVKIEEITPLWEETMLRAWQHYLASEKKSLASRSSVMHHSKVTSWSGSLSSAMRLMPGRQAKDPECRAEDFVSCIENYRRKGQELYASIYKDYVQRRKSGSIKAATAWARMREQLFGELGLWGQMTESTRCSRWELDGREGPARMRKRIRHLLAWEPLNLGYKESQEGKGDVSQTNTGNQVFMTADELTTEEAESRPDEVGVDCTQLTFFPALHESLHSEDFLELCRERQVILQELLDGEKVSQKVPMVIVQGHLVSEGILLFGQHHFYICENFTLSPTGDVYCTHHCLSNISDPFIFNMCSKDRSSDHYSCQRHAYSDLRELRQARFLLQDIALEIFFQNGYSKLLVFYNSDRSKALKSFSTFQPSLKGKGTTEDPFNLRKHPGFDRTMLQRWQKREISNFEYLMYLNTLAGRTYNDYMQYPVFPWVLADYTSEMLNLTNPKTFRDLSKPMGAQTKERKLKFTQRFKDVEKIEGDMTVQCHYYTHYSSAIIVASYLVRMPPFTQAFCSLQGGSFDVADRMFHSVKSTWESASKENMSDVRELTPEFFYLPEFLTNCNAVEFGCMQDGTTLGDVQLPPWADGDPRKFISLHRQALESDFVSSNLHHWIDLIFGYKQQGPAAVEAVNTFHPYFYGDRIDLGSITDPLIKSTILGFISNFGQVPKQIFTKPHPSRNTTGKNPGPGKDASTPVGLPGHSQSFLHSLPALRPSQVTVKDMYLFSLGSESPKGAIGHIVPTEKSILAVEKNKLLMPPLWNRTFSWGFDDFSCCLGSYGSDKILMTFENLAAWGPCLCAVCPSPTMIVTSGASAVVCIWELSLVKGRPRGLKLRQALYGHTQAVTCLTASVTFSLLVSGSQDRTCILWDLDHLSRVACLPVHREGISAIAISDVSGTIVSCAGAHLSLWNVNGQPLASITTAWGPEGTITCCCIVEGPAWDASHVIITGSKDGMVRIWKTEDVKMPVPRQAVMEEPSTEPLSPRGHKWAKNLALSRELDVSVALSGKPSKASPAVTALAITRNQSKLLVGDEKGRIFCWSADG
UniProt O35239: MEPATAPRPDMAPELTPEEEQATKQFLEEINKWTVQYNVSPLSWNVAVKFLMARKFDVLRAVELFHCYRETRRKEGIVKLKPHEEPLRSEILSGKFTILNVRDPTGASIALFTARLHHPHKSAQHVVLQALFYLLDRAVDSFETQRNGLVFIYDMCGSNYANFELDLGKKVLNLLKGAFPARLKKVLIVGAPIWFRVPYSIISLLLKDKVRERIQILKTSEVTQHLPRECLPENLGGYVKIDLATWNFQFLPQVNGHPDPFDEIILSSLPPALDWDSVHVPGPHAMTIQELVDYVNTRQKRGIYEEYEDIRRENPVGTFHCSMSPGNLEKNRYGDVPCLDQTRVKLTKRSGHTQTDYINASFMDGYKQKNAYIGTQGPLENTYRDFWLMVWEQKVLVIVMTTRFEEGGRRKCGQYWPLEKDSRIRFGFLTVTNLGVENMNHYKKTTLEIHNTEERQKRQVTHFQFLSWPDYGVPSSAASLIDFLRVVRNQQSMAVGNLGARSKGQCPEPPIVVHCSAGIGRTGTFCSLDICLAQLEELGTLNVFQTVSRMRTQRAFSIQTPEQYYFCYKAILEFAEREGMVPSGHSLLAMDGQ
UniProt B2RUP2: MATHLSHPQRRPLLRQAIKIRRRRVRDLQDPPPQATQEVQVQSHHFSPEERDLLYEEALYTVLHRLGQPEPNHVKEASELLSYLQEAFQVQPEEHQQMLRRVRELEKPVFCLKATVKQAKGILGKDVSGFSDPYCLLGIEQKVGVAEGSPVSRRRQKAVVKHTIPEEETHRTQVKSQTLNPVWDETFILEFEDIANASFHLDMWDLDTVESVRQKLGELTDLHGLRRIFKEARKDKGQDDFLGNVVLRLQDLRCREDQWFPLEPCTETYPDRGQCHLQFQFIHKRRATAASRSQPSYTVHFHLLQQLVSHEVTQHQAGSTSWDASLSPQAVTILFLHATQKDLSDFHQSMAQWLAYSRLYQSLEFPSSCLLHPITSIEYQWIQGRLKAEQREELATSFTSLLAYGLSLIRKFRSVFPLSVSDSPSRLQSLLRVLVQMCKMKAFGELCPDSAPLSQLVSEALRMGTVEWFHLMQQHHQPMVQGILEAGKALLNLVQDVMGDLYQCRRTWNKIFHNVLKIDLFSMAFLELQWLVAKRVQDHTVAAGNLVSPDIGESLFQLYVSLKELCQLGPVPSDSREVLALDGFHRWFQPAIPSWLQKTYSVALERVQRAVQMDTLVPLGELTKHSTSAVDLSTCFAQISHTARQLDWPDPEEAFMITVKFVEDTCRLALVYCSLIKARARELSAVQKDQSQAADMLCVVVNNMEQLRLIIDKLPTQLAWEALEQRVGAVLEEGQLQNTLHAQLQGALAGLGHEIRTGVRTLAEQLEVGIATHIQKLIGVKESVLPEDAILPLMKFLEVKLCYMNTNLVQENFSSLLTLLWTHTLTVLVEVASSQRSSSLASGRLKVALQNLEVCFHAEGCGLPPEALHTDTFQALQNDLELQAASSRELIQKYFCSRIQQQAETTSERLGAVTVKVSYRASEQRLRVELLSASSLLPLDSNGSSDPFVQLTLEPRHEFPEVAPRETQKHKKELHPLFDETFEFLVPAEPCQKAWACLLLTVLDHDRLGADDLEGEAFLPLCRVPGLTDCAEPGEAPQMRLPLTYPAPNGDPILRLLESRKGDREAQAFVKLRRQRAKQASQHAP
UniProt O35382: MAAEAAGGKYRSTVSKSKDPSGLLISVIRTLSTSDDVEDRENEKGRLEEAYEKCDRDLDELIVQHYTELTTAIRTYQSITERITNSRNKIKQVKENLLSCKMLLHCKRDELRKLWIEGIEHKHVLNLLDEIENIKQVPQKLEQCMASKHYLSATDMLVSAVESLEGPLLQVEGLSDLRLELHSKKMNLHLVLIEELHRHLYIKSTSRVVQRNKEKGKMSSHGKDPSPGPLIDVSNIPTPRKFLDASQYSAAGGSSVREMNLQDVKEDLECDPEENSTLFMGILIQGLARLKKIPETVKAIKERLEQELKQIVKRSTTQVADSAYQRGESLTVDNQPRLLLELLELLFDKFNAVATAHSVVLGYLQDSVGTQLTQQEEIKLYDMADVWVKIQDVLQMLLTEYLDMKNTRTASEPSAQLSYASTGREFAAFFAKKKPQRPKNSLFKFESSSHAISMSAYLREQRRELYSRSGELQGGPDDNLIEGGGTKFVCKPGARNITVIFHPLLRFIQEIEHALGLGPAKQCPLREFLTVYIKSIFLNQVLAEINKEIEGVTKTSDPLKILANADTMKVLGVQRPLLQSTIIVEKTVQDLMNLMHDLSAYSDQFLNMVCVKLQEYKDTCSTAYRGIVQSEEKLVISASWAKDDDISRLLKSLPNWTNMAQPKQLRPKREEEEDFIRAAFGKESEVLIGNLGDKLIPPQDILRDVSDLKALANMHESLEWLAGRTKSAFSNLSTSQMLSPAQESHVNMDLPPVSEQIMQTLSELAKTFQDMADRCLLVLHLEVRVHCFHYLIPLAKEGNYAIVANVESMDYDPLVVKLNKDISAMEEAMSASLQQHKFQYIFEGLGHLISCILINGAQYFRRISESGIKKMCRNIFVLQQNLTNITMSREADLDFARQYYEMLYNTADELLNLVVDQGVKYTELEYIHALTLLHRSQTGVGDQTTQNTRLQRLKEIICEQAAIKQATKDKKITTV
UniProt O35448: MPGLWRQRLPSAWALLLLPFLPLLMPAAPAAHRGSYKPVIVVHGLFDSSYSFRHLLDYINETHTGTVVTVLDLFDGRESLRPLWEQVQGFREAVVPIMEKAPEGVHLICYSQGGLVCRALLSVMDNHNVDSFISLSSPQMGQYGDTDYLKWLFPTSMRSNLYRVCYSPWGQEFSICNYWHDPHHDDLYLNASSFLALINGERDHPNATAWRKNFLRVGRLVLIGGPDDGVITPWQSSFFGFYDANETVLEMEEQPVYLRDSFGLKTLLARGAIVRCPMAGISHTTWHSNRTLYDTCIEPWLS
UniProt O35143: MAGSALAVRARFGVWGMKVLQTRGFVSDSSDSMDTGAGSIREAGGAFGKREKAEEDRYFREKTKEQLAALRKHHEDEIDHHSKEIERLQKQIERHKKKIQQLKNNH
UniProt O09061: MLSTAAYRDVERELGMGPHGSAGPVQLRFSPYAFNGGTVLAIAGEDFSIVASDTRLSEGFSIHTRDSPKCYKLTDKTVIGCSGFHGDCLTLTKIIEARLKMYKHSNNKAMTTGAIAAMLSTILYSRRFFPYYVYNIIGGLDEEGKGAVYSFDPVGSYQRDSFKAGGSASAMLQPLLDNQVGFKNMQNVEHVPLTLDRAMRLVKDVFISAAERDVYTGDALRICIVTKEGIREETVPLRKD

Compound: CN[C@@H]1C[C@H]2O[C@@](C)([C@@H]1OC)n1c3ccccc3c3c4c(c5c6ccccc6n2c5c31)C(=O)NC4 [staurosporine]
Assay: log2 fold change of tryptic peptide abundance, ligand vs vehicle (limited proteolysis) (log2 ratio); higher = more trypsin-susceptible (destabilized)
Conditions: ligand concentration: 20 uM; sample: mouse liver crude lysate; replicate design: treated separately

Row | Target | log2 fold change
1 | UniProt O08900 (peptide sequence: DALTGHLR, peptide start residue: 185) | 0.112
2 | UniProt O08663 (peptide sequence: ERDDDDEDGDGDADGATGKK, peptide start residue: 80) | -0.937
3 | UniProt B9EJR8 (peptide sequence: AALLDPFAAVR, peptide start residue: 171) | 0.199
4 | UniProt G5E870 (peptide sequence: GLWHPYNR, peptide start residue: 776) | 0.389
5 | UniProt E9Q735 (peptide sequence: EKEAGLQMFGQLAR, peptide start residue: 793) | -0.476
6 | UniProt O08785 (peptide sequence: HRTDSLTDPSK, peptide start residue: 841) | 0.192
7 | UniProt O08908 (peptide sequence: KINEWLGIK, peptide start residue: 584) | 0.164
8 | UniProt O08600 (peptide sequence: NHVAVPTHFFK, peptide start residue: 218) | 0.145
9 | UniProt E9Q4N7 (peptide sequence: SSTVSVHDPFSDVSDSAYPKR, peptide start residue: 1288) | -0.269
10 | UniProt G3X9Z4 (peptide sequence: IDGPPTPGSLR, peptide start residue: 780) | 0.155
11 | UniProt E9Q2M9 (peptide sequence: GTTEDPFNLR, peptide start residue: 2518) | -0.224
12 | UniProt E9Q7X6 (peptide sequence: SDPSIGGGESTGR, peptide start residue: 419) | -0.291
13 | UniProt O35250 (peptide sequence: WLVEYGR, peptide start residue: 205) | -0.116
14 | UniProt O35239 (peptide sequence: NQQSMAVGNLGAR, peptide start residue: 489) | 0.214
15 | UniProt O35350 (peptide sequence: TNGFSLESCR, peptide start residue: 581) | 0.106
16 | UniProt B2RUP2 (peptide sequence: LALVYCSLIK, peptide start residue: 668) | 0.177
17 | UniProt O35382 (peptide sequence: KFLDASQYSAAGGSSVR, peptide start residue: 241) | -0.253
18 | UniProt O35448 (peptide sequence: WLFPTSMR, peptide start residue: 151) | -0.124
19 | UniProt E9Q4P1 (peptide sequence: VCDSCYDSIKDEDR, peptide start residue: 343) | -0.152
20 | UniProt B2RXR6 (peptide sequence: HGHELLINTLITSGADTAK, peptide start residue: 349) | -0.681
21 | UniProt O35143 (peptide sequence: TKEQLAALR, peptide start residue: 63) | 0.0725
22 | UniProt O08749 (peptide sequence: ALTGGIAHLFK, peptide start residue: 133) | 0.249
23 | UniProt O08784 (peptide sequence: LKATEAIK, peptide start residue: 1172) | -0.205
24 | UniProt O35242 (peptide sequence: EHNIVAPYKIER, peptide start residue: 117) | -0.3
25 | UniProt O08576 (peptide sequence: GFWDYIR, peptide start residue: 92) | 0.224
26 | UniProt O09061 (peptide sequence: LSEGFSIHTR, peptide start residue: 56) | 0.278
27 | UniProt D3Z2X2 (peptide sequence: KEQKAEENK, peptide start residue: 3617) | 0.027
28 | UniProt O08914 (peptide sequence: AGLETMDK, peptide start residue: 50) | 0.15
29 | UniProt E9Q6J5 (peptide sequence: KTENSEVDTSAR, peptide start residue: 1456) | -1.18

A run of entries from the list above, for reference:
Row | Target | log2 fold change
12 | UniProt E9Q7X6 (peptide sequence: SDPSIGGGESTGR, peptide start residue: 419) | -0.291
13 | UniProt O35250 (peptide sequence: WLVEYGR, peptide start residue: 205) | -0.116
